System: HCT116
Settings: 72 h
Summary of the method: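 IC50 and maximal efficacy were derived from four-parameter Hill curve fits. The underlying CellTiter-Glo luminescence was scaled so that vehicle equals 0% and positive control equals -100%, and was then pattern-corrected. HCT116 cells had been seeded in 1536-well plates at 250 per well.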

IC50 cell viability (ICRF193 0 nM): > 45.8 µM
IC50 cell viability (ICRF193 200 nM): > 45.8 µM
SMILES: O=C(c1ccccc1)c1ccccc1 [Benzophenone]
